Measurements: publication PMC3916906
These are yes or no findings as the source states them, for the method shown. For some of these results: In cells and extracts the contact can be indirect. Some binding calls cover weakened binding; strength is not graded here.

Sequences of proteins named here, by UniProt entry; tags and fusion partners are left off. A change or cut given only in a name is not applied to a line headed by its entry.
UniProt Q9UKV8: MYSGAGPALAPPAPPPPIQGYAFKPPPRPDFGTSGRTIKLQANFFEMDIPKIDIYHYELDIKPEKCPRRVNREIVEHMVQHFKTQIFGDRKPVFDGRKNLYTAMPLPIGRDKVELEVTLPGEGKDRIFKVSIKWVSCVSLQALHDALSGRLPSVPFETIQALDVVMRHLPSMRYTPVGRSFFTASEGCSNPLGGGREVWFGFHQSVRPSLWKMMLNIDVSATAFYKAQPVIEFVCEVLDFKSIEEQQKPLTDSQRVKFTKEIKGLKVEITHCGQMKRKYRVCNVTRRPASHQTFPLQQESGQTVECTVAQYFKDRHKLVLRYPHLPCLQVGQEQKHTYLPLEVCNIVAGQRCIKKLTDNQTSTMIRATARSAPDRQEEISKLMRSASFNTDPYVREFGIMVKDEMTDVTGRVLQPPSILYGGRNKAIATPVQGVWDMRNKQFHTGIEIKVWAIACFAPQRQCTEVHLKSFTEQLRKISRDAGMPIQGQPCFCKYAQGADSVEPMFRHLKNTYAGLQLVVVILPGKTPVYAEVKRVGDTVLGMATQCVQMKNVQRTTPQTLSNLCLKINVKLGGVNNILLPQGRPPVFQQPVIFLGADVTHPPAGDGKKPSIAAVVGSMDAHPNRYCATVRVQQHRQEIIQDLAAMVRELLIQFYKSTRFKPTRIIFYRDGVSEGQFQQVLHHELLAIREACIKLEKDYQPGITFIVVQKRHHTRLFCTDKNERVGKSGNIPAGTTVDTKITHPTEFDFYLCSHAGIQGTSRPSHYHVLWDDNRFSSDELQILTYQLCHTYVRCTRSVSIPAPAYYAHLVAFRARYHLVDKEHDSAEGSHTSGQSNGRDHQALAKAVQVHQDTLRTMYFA
UniProt Q8NDV7: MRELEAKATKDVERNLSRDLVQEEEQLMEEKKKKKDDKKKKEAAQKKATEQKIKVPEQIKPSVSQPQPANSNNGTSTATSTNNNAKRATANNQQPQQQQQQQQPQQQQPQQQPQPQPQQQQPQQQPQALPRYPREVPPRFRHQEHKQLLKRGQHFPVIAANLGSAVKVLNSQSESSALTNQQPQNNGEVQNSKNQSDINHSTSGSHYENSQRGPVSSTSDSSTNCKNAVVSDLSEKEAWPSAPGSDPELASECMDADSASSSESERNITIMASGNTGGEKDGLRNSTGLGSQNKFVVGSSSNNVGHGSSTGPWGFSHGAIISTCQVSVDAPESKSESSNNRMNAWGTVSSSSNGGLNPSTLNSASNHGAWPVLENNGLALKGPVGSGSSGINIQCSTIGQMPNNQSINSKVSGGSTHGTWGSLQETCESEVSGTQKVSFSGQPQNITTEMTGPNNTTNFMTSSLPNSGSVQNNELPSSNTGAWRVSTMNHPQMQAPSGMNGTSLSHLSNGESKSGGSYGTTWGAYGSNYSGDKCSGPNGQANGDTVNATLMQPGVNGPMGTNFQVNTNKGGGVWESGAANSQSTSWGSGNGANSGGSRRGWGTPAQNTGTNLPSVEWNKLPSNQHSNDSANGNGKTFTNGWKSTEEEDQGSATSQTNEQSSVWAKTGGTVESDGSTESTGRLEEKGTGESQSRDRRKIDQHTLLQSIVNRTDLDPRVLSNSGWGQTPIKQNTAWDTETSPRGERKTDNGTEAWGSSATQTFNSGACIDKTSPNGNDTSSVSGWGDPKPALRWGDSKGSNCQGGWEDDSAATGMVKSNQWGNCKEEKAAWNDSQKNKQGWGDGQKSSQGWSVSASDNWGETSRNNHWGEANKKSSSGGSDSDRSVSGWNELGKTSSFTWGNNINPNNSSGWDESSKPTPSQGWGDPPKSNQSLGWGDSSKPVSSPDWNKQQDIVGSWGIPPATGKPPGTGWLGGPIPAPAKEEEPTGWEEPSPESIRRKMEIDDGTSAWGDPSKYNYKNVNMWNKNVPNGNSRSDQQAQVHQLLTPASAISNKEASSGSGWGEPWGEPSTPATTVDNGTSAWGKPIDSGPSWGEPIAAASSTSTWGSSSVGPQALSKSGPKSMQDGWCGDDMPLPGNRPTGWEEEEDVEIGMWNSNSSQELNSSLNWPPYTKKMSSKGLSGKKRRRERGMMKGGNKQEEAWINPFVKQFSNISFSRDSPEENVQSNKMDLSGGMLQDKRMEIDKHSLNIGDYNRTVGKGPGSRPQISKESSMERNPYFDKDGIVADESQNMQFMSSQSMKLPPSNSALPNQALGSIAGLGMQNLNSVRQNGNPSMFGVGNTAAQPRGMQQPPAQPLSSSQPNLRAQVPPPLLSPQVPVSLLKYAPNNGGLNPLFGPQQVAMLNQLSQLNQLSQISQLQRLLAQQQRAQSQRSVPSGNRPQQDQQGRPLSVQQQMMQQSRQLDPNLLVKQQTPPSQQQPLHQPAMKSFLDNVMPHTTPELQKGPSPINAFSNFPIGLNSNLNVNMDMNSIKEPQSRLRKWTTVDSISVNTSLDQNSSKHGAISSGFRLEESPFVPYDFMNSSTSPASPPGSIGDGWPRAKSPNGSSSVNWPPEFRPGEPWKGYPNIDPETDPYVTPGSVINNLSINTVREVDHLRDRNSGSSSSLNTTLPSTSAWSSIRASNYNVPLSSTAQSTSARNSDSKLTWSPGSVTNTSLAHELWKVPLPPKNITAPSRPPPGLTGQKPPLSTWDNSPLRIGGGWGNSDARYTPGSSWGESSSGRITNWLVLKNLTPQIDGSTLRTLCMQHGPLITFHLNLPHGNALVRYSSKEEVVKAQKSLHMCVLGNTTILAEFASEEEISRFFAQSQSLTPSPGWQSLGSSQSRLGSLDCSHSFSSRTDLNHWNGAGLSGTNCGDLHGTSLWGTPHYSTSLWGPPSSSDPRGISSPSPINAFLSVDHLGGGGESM
UniProt Q9UPY3: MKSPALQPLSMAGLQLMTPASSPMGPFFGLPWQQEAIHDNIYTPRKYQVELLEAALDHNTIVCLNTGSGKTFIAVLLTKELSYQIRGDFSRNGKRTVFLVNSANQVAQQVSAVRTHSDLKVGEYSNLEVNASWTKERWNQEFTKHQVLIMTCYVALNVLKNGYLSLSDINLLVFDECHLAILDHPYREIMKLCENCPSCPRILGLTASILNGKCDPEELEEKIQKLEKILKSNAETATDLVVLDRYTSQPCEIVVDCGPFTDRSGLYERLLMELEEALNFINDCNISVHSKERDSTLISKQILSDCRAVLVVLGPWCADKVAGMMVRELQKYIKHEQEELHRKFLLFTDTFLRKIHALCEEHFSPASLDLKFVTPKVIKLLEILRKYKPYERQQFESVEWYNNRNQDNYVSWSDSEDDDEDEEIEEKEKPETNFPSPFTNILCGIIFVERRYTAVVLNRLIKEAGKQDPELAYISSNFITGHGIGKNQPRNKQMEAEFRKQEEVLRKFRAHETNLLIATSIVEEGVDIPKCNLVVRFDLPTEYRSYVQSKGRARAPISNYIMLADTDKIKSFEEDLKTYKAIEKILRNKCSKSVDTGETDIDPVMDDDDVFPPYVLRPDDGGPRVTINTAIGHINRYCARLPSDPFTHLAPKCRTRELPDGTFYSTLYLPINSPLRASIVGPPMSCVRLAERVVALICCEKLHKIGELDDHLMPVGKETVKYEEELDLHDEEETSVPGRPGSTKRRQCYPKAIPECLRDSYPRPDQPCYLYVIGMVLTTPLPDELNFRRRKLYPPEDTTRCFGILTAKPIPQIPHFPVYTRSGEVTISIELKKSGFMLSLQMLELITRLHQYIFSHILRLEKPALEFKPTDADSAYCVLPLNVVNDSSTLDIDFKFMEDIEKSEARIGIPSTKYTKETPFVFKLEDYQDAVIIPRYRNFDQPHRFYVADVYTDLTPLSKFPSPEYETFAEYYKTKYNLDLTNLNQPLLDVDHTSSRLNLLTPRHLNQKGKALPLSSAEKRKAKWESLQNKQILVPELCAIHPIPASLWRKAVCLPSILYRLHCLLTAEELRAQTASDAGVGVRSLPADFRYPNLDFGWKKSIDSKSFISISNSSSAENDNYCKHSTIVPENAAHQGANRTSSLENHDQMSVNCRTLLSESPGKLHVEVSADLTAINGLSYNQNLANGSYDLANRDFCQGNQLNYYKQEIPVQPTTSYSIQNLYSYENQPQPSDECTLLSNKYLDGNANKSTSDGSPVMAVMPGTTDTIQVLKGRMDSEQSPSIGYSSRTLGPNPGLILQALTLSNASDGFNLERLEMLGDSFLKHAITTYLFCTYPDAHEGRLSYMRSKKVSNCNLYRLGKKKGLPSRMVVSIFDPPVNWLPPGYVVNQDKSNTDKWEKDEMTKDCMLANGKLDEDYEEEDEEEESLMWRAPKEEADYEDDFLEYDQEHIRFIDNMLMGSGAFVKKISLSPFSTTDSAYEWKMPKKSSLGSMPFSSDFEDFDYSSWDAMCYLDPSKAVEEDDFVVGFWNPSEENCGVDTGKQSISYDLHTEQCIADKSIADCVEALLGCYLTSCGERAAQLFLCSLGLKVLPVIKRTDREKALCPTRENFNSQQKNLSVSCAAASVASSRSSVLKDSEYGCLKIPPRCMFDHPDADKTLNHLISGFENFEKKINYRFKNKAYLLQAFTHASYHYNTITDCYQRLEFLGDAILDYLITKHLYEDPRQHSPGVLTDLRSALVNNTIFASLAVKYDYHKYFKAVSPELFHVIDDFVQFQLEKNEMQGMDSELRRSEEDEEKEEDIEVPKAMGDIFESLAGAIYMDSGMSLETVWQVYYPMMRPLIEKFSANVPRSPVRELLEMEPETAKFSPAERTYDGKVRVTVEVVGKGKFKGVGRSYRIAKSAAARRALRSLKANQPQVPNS

Tests used:
[1] = target: Argonaute-2 (Ago2), endogenous (human (endogenous in HeLa and T47D)) (UniProt Q9UKV8); assay: co-IP; endogenous proteins from pre-cleared HeLa nuclear extract; Protein G Plus/Protein A resin and antibody, 4°C, 2-3 h; wash 20 mM Tris-HCl pH 7.5, 0.4 M NaCl, 2 mM MgCl2, 0.05% NP-40, 0.025% SDS; Western blot
[2] = target: Argonaute-2 (Ago2), endogenous (human (endogenous in HeLa and T47D)) (UniProt Q9UKV8); assay: co-IP; T47D nuclear extract treated with RNase A (20 μg added before incubation); Protein G Plus/Protein A resin, 4°C, 2-3 h; Western blot
[3] = target: Argonaute-2 (Ago2), endogenous (human (endogenous in HeLa and T47D)) (UniProt Q9UKV8); assay: anion-exchange chromatography; high molecular weight size-exclusion fractions of HeLa nuclear extract concentrated and run on Mono-Q, linear gradient 0.1 to 1 M NaCl; fractions by Western blot
[4] = target: Argonaute-2 (Ago2), endogenous (human (endogenous in HeLa and T47D)) (UniProt Q9UKV8); assay: SEC; HeLa nuclear extract, treated with RNase A or SUPERase-In, on Superdex 200 HiLoad 16/60 in 20 mM Tris-HCl pH 7.5, 150 mM NaCl, 3 mM MgCl2, 5% glycerol; fractions by Western blot
[5] = target: FLAG-HA-tagged Ago2 (FHA-Ago2) (human) (UniProt Q9UKV8); assay: co-IP; anti-FLAG immunoprecipitation of FHA-Ago2 from nuclear extract of T47D cells stably expressing it; HeLa nuclear extract as negative control; Western blot

Measured: binding

TNRC6A (GW182 homolog), endogenous (from UniProt Q8NDV7 1-1962)
binds: all assays above

Dicer, endogenous (from UniProt Q9UPY3 1-1922) (enzyme)
binds: all assays above
